The target of this experiment is Full length Sso1 WT (a.a. 1-290) (yeast (S. cerevisiae)) (UniProt P32867). As to the kind of experiment: single-molecule pull-down.

Amino acid sequences for entries named in this document (tags omitted). A change or cut given only in a name is not applied to a line headed by its entry. Chains listed by the source or under a name are the forms on record and can include a tag or linker.
UniProt P32867: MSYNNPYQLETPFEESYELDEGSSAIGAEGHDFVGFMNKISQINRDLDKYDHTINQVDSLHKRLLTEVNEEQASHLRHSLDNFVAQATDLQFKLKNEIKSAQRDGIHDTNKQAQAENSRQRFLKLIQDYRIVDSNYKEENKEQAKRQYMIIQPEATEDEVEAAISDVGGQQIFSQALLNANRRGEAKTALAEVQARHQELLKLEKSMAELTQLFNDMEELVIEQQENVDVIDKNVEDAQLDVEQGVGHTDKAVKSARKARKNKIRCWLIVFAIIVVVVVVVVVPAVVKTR
Cy3-labeled Sec9 (A442C) (P40357, form named): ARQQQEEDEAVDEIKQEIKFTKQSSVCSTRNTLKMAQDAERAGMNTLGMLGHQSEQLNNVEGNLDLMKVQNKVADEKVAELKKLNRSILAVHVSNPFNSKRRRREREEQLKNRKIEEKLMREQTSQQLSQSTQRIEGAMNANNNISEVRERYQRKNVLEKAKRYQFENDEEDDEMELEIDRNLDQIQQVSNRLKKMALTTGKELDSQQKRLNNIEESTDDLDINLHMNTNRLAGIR

These are yes or no findings as the source states them, for the method shown.

As for “Cy3-labeled Sec9 (A442C) (from UniProt P40357 416-651) (domain or fragment)”, the binding result is listed as “no binding (condition: without exocyst)”.

For the origin of these results see article doi:10.1101/2022.01.16.476540 (bioRxiv, 2022).
